Test: peptide synthesis
Conditions: conjugation step

Substance | conjugation yield [%]
(2S,5S,8S,11S,14S,19S)-2-((1-((2-(((3-(3-Acetamidopropyl)-1,1,3,3-tetramethyldisiloxanyl)methyl)thio)pyrimidin-5-yl)methyl)-1H-1,2,3-triazol-4-yl)methyl)-19-(4-(((2-amino-4-oxo-3,4-dihydropteridin-6-yl)methyl)amino)benzamido)-5,8,14-tris(carboxymethyl)-11-(3-guanidinopropyl)-4,7,10,13,16-pentaoxo-3,6,9,12,15-pentaazaicosane-1,20-dioic acid | 17.1
5-(N-(2-(4-(3-(((5-((3-(((3S,8S,11S,14R)-1-(4-(((2-amino-4-oxo-3,4-dihydropteridin-6-yl)methyl)amino)phenyl)-3,14-dicarboxy-8-(carboxymethyl)-11-((3-(5,5-difluoro-7-methyl-5H-5l4,6l4-dipyrrolo[1,2-c:2′,1′-f][1,3,2]diazaborinin-3-yl)propanamido)methyl)-1,6,9,12-tetraoxo-2,7,10,13-tetraazapentadecan-15-yl)thio)-2,5-dioxopyrrolidin-1-yl)methyl)pyrimidin-2-yl)thio)methyl)-1,1,3,3-tetramethyldisiloxanyl)butanamido)ethyl)sulfamoyl)-2-(6-(diethylamino)-3-(diethyliminio)-3H-xanthen-9-yl)benzenesulfonate | 38

From US9931407B2 (BlinkBio, Inc., priority 2015, dated 2018)
